Test [1] addresses ∆STI-ST13-1xFLAG (human) (UniProt P50502). Description: co-IP; FLAG-tagged St13 variants purified from lysates of transfected ∆ST13 HEK293 cells on FLAG-M2 resin (physiological or high salt), eluted with FLAG peptide, SDS-PAGE.
The target of test [2] is ∆TPR-ST13-1xFLAG (human) (UniProt P50502). Described as above.

Amino acid sequences for entries named in this document (tags omitted). A change or cut given only in a name is not applied to a line headed by its entry.
UniProt P50502: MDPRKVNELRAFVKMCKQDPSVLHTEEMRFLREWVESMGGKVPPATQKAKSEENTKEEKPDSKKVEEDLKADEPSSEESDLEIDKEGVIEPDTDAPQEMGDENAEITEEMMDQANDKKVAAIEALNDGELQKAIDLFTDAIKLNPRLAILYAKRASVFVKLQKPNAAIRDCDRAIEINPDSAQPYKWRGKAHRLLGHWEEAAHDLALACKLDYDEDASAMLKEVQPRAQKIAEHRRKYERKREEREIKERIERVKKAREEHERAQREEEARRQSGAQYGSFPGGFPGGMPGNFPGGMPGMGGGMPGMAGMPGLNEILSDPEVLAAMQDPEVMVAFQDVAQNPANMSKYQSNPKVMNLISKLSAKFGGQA
UniProt P11142: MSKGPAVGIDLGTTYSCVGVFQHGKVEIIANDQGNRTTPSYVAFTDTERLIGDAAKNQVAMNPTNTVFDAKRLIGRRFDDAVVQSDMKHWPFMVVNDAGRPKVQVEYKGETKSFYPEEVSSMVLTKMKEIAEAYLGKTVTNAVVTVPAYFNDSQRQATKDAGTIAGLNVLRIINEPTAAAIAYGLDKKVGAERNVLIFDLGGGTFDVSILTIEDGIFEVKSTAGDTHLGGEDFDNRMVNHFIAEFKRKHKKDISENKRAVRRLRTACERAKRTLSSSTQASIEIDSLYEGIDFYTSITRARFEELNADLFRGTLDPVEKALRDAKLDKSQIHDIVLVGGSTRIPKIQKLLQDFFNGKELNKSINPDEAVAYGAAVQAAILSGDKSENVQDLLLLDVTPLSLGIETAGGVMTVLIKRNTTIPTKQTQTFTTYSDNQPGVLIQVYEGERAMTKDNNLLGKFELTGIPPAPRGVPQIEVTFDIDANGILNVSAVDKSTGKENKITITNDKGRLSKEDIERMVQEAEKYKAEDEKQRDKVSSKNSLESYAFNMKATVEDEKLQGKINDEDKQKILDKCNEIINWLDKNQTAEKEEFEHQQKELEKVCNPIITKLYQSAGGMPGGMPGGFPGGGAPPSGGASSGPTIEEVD

No constants are given. Whether binding was seen depends on the method and setting. Binding seen in cells or lysates may run through a third protein. For some of these results: Binding calls can cover weak binding; strength is not graded here.

The source of these data is article PMC7617541.

“Hsc70 (endogenous, HEK293 cells) (from UniProt P11142 1-646)”: the binding result in test [1] is reported as “binds”; in test [2], “no binding”.
In the same order, the values of “Stip1 (endogenous, HEK293 cells) (from UniProt P31948 1-543)” are “binds” and “no binding”.
